Chains of the proteins cited; added tags and fusions are not shown.
UniProt O07897, entry or part of it Y472A: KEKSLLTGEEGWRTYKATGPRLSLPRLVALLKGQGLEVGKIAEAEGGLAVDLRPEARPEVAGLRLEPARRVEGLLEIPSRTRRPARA
UniProt O07897, entry or part of it R444A: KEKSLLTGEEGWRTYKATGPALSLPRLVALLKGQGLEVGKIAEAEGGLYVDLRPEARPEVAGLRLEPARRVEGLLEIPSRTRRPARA

According to publication PMC3695512:

Assays:
[1] = target: Hera_RBD Y472A (Thermus thermophilus) (UniProt O07897); test: fluorescence anisotropy; conditions: 5 mM Mg2+; Anisotropy: 50 mM Tris/HCl pH 7.5, 150 mM NaCl, 5 mM MgCl2 (Fig 2), 25 C, 50 nM RNA; recombinant protein; label: 5'-fluorescein
[2] = target: Hera_RBD R444A (Thermus thermophilus) (UniProt O07897); test: fluorescence anisotropy; conditions: 5 mM Mg2+; Anisotropy: 50 mM Tris/HCl pH 7.5, 150 mM NaCl, 5 mM MgCl2 (Fig 2), 25 C, 50 nM RNA; recombinant protein; label: 5'-fluorescein

“GCAGGUCCCAAGGGUUGGGCUGUUCGCCCAUU [32mer]”: binds more weakly [1]; binds more weakly [2].

The exact form of at least one protein or probe is not confirmed. Weaker means in comparison with the reference protein, sequence or condition of that experiment.
